Data on two compounds can be found in patent US9255088B2, “Premature-termination-codons readthrough compounds” (The Regents of the University of California, priority 2010, dated 2016).

For the data set, the system named is ATM-Ser1981 autophosphorylation in AT229LA cells (TAG A). Briefly: Flow cytometry ATM-Ser1981 phosphorylation (FC-ATM) in AT229LA cells. The data set is classed as cell-based, human. The conditions noted are these: isotype controls. From the text:
To further compare the readthrough activity of RTC#13 and #14 with gentamicin and G418, we used a flow cytometry (FC)-based ATM-Ser1981 phosphorylation assay to assess readthrough activity in AT229LA cells (TAG A; FIG. 4). […] This was consistent with previous ATM IRIF data (FIG. 3c). Encouragingly, ATM-Ser1981 phosphorylation levels induced by RTC#13 and #14 were similar to those induced by the same concentrations of gentamicin and G418 in the same cell line (FIG. 4).
AT229LA cells (TAG A) were treated with RTC#13 and #14 for 4 d and analyzed for ATM-Ser1981 phosphorylation using FC. Gentamicin and G418 were used as positive readthrough controls. […] Results were consistent in three independent experiments.
FC-SMC1 assay was performed as recently described (Nahas et al., 2009). FC-ATM-Ser1981 assay was based on Honda's assay (Honda et al., 2009, Leukemia. 23:409-414) with modifications. In brief, cells were resuspended in PBS and radiated for 10 Gy. After 1 h, the cells were fixed and permeabilized using the FIX & PERM cell permeabilization kit (Invitrogen). The cells were then incubated with 1 μl of mouse ATM-Ser1981 antibody (Cell Signaling Technology) for 2 h at room temperature. […] Cells were next washed and resuspended in PBS with 0.2% paraformaldehyde and analyzed using a FACSCalibur (BD).

Each structure is given as a SMILES string. Entries after “also recorded” stand apart in the source; their conditions may differ.

For the compound `N=C1NC(=O)C(=Cc2ccc(-c3ccccc3[N+](=O)[O-])o2)S1` [RTC13, 2-imino-5-{[5-(2-nitrophenyl)-2-furyl]methylene}-1,3-thiazolidin-4-one], the autofluorescence entry is recorded as “Neither of the two compounds produces green autofluorescence; also recorded: Neither compound produced autofluorescence”.
In the case of `CC(C)(C)c1ccc(O)c(N=Cc2cccc([N+](=O)[O-])c2)c1` [RTC14, 4-tert-butyl-2-[(3-nitrobenzylidene)amino]pheno], the autofluorescence result is given as “Neither of the two compounds produces green autofluorescence; also recorded: Neither compound produced autofluorescence”.
